Laboratory results: publication PMC10380243
These are yes or no findings as the source states them, for the method shown. Binding seen in cells or lysates may run through a third protein. Some results given as binding are weak or reduced against the parent protein; the word gives no strength.

Sequences of proteins named here, by UniProt entry; tags and fusion partners are left off.
UniProt Q9NP97: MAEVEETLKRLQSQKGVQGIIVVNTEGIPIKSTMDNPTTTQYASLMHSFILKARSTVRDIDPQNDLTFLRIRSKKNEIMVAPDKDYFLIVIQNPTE
UniProt P62628: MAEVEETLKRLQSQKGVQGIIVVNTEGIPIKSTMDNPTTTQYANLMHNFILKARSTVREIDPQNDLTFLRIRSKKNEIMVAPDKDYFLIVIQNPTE
UniProt P81799: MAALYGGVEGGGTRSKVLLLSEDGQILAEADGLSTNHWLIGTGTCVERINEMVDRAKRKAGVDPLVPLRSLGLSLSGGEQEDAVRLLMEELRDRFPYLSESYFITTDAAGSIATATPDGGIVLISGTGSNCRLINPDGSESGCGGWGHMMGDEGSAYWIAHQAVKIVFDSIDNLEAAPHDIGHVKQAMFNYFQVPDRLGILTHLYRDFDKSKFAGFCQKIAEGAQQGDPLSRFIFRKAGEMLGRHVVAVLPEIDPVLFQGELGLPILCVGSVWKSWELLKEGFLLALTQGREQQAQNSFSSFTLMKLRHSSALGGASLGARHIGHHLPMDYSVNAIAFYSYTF

Key:
[1] = molecular target: His-tagged N-acetylglucosamine kinase (His-NAGK) (UniProt Q9UJ70); test: pull-down; His pull-down on Ni-NTA magnetic silica resin from lysates (500 µg) of HEK293T cells transfected for 48 h; IP lysis buffer 25 mM Tris-HCl pH 7.4, 150 mM NaCl, 1 mM EDTA, 1% NP-40, 5% glycerol; Western blot
[2] = molecular target: dynein light-chain roadblock type 1 (DYNLRB1), endogenous in human cells (human (endogenous in HEK293T and SK-MEL-31)) (UniProt Q9NP97); test: proximity ligation; Duolink PLA on fixed SK-MEL-31 cells treated with DMSO, ciliobrevin D (80 µM for 6 h) or nocodazole (10 µM for 1 h)
[3] = molecular target: dynein light-chain roadblock type 1 (DYNLRB1), endogenous in rat hippocampal neurons (rat (endogenous in primary hippocampal neurons)) (UniProt P62628); test: proximity ligation; Duolink PLA on fixed primary rat hippocampal neurons, DIV 1/3/5 and DIV 12/16/21; negative control with a single primary antibody; for NAGK-SNRPN also at DIV 4 and DIV 14 after AAV overexpression or knockdown of NAGK and SNRPN

| Substance | binding [1] | other results |
| --- | --- | --- |
| Myc-DDK-DYNLRB1 (from UniProt P62628 1-96) | binds | – |
| N-acetylglucosamine kinase (NAGK), endogenous in human cells (from UniProt Q9UJ70 1-344) | – | binding [2]: binds |
| N-acetylglucosamine kinase (NAGK), endogenous in rat hippocampal neurons (from UniProt P81799 1-343) | – | binding [3]: binds |
| dynein light-chain roadblock type 1 (DYNLRB1), endogenous in human cells (from UniProt Q9NP97 1-96) | binds | – |
